Here are results for four molecules from patent EP4755449A2.

No constants are given. Whether binding was seen depends on the method and setting. Some entries that bind do so weakly or less than the wild type. Tags and fused reporters may be left off the sequences shown.

Holding throughout (assay): Western blot
The target in experiment [1] is T1, GST-hMSTN 21-120aa (human) (UniProt O14793).
T1 sequence: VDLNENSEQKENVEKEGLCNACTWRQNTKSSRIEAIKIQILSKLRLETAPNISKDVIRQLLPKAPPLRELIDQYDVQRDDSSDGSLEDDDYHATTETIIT

Experiment [2] deals with T2, GST-hMSTN 41-140aa (human) (UniProt O14793).
T2 sequence: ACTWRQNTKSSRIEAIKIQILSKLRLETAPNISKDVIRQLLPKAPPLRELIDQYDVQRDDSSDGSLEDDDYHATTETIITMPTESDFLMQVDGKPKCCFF

In experiment [3] the target is T3, GST-hMSTN 61-160aa (human) (UniProt O14793).
T3 sequence: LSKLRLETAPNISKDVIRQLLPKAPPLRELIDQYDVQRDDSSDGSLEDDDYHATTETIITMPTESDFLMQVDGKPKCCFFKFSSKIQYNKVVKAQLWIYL

Experiment [4] concerns the target T4, GST-hMSTN 81-180aa (human).
T4 sequence: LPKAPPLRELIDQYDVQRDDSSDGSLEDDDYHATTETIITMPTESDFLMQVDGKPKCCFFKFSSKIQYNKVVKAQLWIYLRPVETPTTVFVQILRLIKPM

B1: MST1032 (as used in Example 26) (antibody, V domains shown)
VH: QSLEESGGRLVTPGGSLTVTCRVSGIDLSSYDISWVRQAPGKGLEWIGIISYAGSTYYASWAKGRFTISKTSTTVDLKMTSLTTEDTATYFCARGVPAYSTGGDLWGPGTLVTVSS
VL: AQVLTQTASSVSAAVGGTVTINCQSSQSVYDNNWLSWFQQKPGQPPKLLIYWASTLASGVPSRFKGSGSGTQFTLTISDLECDDAATYYCAGGYGGGLYAFGGGTKVEIK
Consider B1, for which the binding entry in experiment [1], in experiment [2], in experiment [3] and in experiment [4] was “binds” throughout.

B2: MST1538 (antibody, human IgG1, kappa, V domains shown)
VH: QSLEESGGGLVKPGGTLTLTCKASGIDFSSYYYMCWVRQAPGKGLEWIACIYAGISGSTYYASWAKGRFTISKTSSTTVTLQMTSLTAADTATYFCARDPYHFDYGSLWGPGTLVTVSS
VL: ALVMTQTPASVSAAVGGTVTINCQASQSVYGGNELSWYQQEPGQPPKLLIYSASKLASGVPSRFKGSGSGTQFTLTISGVQCDDAAAYYCAGYRTYSDDDNAFGGGTKVEIKR
As to B2, the binding result in experiment [1] and in experiment [2] was “binds” in each case.

B3: MST1573 (antibody, human IgG1, kappa, V domains shown)
VH: QSVEESGGRLVTPGTPLTLTCTVSGIDLSSSSMIWVRQAPGEGLKYIGFISKSGYTYYASWAKGRFTISKTSTTVDLKITSPTTEDTATYFCARGGYSGDWDYFTLWGPGTLVTVSS
VL: DIVMTQTPASVEAAVGGTVTIKCQASESIGNALAWYQQKPGQPPKLLIYGAFNLESGVPSRFRGSGSGTEYTLTISDLECDDAATYYCQGYFWSSSTIYAFWAFGGGTKVEIKR
Turning to B3, in experiment [1], the binding result is on record as “binds”.

B4: MST1572 (antibody, human IgG1, kappa, V domains shown)
VH: QSVEESGGRLVTPGTPLTLTCTVSGFSLSSYAMSWVRQAPGKGLEWIGIIYGVGSTYYASWAKGRFTISKTSTTVDLKIASPTTEDTATYFCARDDYGWGYTNLWGPGTLVTVSS
VL: QVLTQTPSSVSAAVGGTVTINCQSSQSVYNNNYLAWFQQKPGQPPKLLIYDASKLASGVPSRFKGSGSGTQFTLTISGVQCDDAATYYCQGSYYSSGWYRAFGGGTKVEIKR
In the case of B4, the binding result in experiment [1] and in experiment [2] was “binds” in each case.
